Data reported in PMC10723718.
Results are given in words; binding and its absence hold for the method and conditions named. Tags and fused reporters may be left off the sequences shown.

Biological target: T1, GST-PhoRC (M. tuberculosis) (UniProt P71815)
T1 sequence: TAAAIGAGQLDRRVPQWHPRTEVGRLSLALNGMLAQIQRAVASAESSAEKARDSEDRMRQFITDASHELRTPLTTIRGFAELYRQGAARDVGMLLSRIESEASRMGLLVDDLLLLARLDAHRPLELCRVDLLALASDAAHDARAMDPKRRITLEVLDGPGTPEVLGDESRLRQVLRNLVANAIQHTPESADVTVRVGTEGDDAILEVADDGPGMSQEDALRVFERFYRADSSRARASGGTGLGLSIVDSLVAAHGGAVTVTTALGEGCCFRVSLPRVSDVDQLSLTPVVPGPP
Assay: pull-down; both purified

B1: His6-PrrA (protein, UniProt P9WGM1 1-233)
chain: MDTGVTSPRVLVVDDDSDVLASLERGLRLSGFEVATAVDGAEALRSATENRPDAIVLDINMPVLDGVSVVTALRAMDNDVPVCVLSARSSVDDRVAGLEAGADDYLVKPFVLAELVARVKALLRRRGSTATSSSETITVGPLEVDIPGRRARVNGVDVDLTKREFDLLAVLAEHKTAVLSRAQLLELVWGYDFAADTNVVDVFIGYLRRKLEAGGGPRLLHTVRGVGFVLRMQ
With B1 the binding was “no binding”.
